Data: doi:10.1101/2020.06.10.144725 (bioRxiv, 2020)
Results are given in words; binding and its absence hold for the method and conditions named. For part of these data: In cells and extracts the contact can be indirect. Some results given as binding are weak or reduced against the parent protein; the word gives no strength. For part of these data: Tags and fused reporters may be left off the sequences shown.

Chains of the proteins cited; added tags and fusions are not shown.
UniProt Q9Y2T1, whole entry: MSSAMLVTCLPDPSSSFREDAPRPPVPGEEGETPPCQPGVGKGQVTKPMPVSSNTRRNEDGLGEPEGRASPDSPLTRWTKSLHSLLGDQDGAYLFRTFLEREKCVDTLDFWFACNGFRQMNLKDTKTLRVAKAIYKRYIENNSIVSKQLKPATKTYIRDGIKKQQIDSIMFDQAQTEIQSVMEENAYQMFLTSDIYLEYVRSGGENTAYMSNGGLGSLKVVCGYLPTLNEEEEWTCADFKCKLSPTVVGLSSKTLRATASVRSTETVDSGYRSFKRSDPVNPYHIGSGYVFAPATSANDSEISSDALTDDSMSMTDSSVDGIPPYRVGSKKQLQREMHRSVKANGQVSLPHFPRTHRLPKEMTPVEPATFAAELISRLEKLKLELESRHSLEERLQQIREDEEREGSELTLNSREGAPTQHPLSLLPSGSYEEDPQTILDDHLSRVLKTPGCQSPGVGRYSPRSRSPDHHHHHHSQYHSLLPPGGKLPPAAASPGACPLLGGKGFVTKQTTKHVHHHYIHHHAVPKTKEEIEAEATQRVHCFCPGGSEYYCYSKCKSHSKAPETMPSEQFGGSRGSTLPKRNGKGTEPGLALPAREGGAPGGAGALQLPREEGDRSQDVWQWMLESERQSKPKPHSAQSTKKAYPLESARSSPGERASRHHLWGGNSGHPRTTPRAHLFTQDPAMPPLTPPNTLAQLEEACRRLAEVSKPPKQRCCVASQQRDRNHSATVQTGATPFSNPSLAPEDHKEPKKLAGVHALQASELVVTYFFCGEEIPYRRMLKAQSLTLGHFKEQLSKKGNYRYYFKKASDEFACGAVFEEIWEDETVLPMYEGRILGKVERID
UniProt O15169, whole entry: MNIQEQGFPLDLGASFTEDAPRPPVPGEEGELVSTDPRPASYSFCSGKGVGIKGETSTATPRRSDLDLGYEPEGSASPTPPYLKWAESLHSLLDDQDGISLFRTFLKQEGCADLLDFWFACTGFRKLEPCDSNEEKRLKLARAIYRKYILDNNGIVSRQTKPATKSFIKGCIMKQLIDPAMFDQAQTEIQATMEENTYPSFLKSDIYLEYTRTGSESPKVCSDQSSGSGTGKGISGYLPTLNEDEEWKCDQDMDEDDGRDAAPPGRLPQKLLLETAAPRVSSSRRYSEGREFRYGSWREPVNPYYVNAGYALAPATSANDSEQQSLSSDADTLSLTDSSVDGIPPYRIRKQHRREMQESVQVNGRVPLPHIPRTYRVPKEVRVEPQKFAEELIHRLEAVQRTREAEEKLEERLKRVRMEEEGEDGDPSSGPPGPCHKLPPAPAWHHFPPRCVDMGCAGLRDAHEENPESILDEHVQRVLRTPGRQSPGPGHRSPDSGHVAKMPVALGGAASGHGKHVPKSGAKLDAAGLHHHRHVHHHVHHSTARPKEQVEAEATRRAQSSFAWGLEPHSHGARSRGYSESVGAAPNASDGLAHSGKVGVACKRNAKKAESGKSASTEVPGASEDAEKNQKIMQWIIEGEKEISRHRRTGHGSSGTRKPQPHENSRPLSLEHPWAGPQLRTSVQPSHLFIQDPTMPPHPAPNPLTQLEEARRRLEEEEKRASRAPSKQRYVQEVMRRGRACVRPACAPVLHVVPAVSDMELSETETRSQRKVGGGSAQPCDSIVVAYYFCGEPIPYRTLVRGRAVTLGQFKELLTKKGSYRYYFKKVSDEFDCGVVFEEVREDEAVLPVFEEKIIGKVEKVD

Columns and labels:
Flag-p62 = Flag-p62 (UniProt Q13501); test: co-IP
Flag-Axin2 = Flag-Axin2 (UniProt Q9Y2T1); test: co-IP
Flag-Axin1 = Flag-Axin1 (UniProt O15169); test: co-IP
[1] = biological target: HA-Nkd1 (murine Nkd1, wild type) (murine) (UniProt Q99MH6); test: SDS-resistant high-molecular weight aggregates on Western blot
RFP-NKD1-EF (human) = biological target: T1, RFP-NKD1-EF (human) (UniProt Q969G9); test: SEC-MALS
T1 sequence: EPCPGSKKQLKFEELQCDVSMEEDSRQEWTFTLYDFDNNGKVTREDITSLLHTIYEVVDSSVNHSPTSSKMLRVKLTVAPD

Axin1-GFP = Axin1-GFP (UniProt O15169); test: co-IP

B1: HA-Nkd1 (murine Nkd1, wild type) (protein, UniProt Q99MH6 1-471)
chain: MGKLHSKPAAVCKRRESPEGDSFAVSAAWARKGIEEWIGRQRCPGSVSGPRQLRLAGTVGRGTRELVGDTSREALGEEDEDDFPLEVALPPEKIDSLGSGDEKRMERLSEPGQASKKQLKFEELQCDVSVEEDSRQEWTFTLYDFDNNGKVTREDITSLLHTIYEVVDSSVNHSPTSSKTLRVKLTVAPDGSQSKRSVLFNHTDLQSTRPRADTKPAEELRGWEKKQRAPLRFQGDSHLEQPDCYHHCVDENIERRNHYLDLAGIENYTSQFGPGSPSVAQKSELPPRISNPTRSRSHEPEAAHIPHRRPQGVDPGSFHLLDTPFAKASELQQRLRGTQDGSKHFVRSPKAQGKNMGMGHGARGARSKPPLVPTTHTVSPSAHLATSPALLPTLAPLGHKKHKHRAKESQASCRGLQGPLAAGGSTVMGREQVRELPAVVVYESQAGQAVQRHEHHHHHEHHHHYHHFYQP
- binding (Flag-p62): binds
- binding (Flag-Axin2): no binding
- binding (Flag-Axin1): binds
- binding [1]: binds

B2: Lip-DVL2-PDZ (domain or fragment, UniProt O14641 285-373)
chain: QSNERGDGGIYIGSIMKGGAVAADGRIEPGDMLLQVNDMNFENMSNDDAVRVLRDIVHKPGPIVLTVAKCWDPSPQAYFTLPRNEPIQP
- binding (RFP-NKD1-EF (human)): binds

B3: Flag-Nkd1 (protein, UniProt Q99MH6 1-471)
chain: MGKLHSKPAAVCKRRESPEGDSFAVSAAWARKGIEEWIGRQRCPGSVSGPRQLRLAGTVGRGTRELVGDTSREALGEEDEDDFPLEVALPPEKIDSLGSGDEKRMERLSEPGQASKKQLKFEELQCDVSVEEDSRQEWTFTLYDFDNNGKVTREDITSLLHTIYEVVDSSVNHSPTSSKTLRVKLTVAPDGSQSKRSVLFNHTDLQSTRPRADTKPAEELRGWEKKQRAPLRFQGDSHLEQPDCYHHCVDENIERRNHYLDLAGIENYTSQFGPGSPSVAQKSELPPRISNPTRSRSHEPEAAHIPHRRPQGVDPGSFHLLDTPFAKASELQQRLRGTQDGSKHFVRSPKAQGKNMGMGHGARGARSKPPLVPTTHTVSPSAHLATSPALLPTLAPLGHKKHKHRAKESQASCRGLQGPLAAGGSTVMGREQVRELPAVVVYESQAGQAVQRHEHHHHHEHHHHYHHFYQP
- binding (Axin1-GFP): binds
